The source of these data is publication PMC5122161, “Novel prokaryotic expression of thioredoxin-fused insulinoma associated protein tyrosine phosphatase 2 (IA-2), its characterization and immunodiagnostic application” (BMC Biotechnology, 2016).

This test deals with intracellular domain of IA-2 fused to thioredoxin (TrxIA-2ic) (human) (UniProt Q16849). The experiment in a line: condition: only with 8 M urea and 100 mM dithiothreitol; western blot after reduction with dithiothreitol; TrxIA-2ic under denaturing and reducing conditions (8 M urea and 100 mM dithiothreitol); western blot with rabbit polyclonal serum to IA-2ic; both purified. (In general: In western blotting, separated proteins are transferred to a membrane and probed.)

Results are given in words; binding and its absence hold for the method and conditions named. Tags and fused reporters may be left off the sequences shown.

B1: intracellular domain of IA-2 fused to thioredoxin (TrxIA-2ic) (domain or fragment, human, UniProt Q16849 604-979, looked up)
chain: ARQQDKERLAALGPEGAHGDTTFEYQDLCRQHMATKSLFNRAEGPPEPSRVSSVSSQFSDAAQASPSSHSSTPSWCEEPAQANMDISTGHMILAYMEDHLRNRDRLAKEWQALCAYQAEPNTCATAQGEGNIKKNRHPDFLPYDHARIKLKVESSPSRSDYINASPIIEHDPRMPAYIATQGPLSHTIADFWQMVWESGCTVIVMLTPLVEDGVKQCDRYWPDEGASLYHVYEVNLVSEHIWCEDFLVRSFYLKNVQTQETRTLTQFHFLSWPAEGTPASTRPLLDFRRKVNKCYRGRSCPIIVHCSDGAGRTGTYILIDMVLNRMAKGVKEIDIAATLEHVRDQRPGLVRSKDQFEFALTAVAEEVNAILKALPQ
notes: insulinoma associated protein tyrosine phosphatase 2 (IA-2), human, intracellular domain IA-2ic, residues 604 to 979 of the 979-residue protein; codon-optimised synthetic gene adapted from GenBank L18983.1; Thioredoxin was not removed; also called thioredoxin-fused insulinoma associated protein tyrosine phosphatase 2; not shown: thioredoxin (E. coli), N-terminal, kept
As for B1, the binding entry is listed as “no binding”.
